Reference: paper doi:10.1101/2023.04.27.538541
No constants are given. Whether binding was seen depends on the method and setting. Some entries that bind do so weakly or less than the wild type.

Protein sequences, listed by entry. Tags and fused reporters are not part of them. Lines headed by an entry give the natural chain unless they say otherwise; changes in a name come on top.
UniProt Q6NZQ4: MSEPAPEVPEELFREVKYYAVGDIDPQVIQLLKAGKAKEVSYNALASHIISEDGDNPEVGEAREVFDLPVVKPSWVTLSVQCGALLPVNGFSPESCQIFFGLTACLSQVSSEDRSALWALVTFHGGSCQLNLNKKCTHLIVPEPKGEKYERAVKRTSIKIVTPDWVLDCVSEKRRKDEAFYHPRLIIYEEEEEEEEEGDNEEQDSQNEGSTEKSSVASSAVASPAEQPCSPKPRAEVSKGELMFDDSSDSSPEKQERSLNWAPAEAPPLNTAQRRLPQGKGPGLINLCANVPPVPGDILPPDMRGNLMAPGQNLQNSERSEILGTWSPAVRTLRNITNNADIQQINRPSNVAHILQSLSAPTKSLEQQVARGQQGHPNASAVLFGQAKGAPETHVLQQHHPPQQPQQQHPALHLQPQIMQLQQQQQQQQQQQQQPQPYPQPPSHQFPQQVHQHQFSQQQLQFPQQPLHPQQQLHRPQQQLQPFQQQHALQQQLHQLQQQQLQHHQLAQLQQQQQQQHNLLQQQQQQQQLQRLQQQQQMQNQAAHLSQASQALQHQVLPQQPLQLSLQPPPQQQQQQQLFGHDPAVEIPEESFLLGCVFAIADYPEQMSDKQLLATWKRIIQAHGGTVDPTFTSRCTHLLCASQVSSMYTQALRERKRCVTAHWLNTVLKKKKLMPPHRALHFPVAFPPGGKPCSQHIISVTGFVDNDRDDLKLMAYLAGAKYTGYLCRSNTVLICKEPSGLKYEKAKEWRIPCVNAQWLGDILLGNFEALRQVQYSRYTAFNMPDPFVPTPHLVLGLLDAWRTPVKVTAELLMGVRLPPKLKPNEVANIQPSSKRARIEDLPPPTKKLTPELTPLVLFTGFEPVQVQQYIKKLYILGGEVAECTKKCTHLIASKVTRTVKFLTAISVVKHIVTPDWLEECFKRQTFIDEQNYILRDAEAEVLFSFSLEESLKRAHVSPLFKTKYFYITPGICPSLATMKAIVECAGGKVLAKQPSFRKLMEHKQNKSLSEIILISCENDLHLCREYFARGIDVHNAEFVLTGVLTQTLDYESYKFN
UniProt A0A140LI88: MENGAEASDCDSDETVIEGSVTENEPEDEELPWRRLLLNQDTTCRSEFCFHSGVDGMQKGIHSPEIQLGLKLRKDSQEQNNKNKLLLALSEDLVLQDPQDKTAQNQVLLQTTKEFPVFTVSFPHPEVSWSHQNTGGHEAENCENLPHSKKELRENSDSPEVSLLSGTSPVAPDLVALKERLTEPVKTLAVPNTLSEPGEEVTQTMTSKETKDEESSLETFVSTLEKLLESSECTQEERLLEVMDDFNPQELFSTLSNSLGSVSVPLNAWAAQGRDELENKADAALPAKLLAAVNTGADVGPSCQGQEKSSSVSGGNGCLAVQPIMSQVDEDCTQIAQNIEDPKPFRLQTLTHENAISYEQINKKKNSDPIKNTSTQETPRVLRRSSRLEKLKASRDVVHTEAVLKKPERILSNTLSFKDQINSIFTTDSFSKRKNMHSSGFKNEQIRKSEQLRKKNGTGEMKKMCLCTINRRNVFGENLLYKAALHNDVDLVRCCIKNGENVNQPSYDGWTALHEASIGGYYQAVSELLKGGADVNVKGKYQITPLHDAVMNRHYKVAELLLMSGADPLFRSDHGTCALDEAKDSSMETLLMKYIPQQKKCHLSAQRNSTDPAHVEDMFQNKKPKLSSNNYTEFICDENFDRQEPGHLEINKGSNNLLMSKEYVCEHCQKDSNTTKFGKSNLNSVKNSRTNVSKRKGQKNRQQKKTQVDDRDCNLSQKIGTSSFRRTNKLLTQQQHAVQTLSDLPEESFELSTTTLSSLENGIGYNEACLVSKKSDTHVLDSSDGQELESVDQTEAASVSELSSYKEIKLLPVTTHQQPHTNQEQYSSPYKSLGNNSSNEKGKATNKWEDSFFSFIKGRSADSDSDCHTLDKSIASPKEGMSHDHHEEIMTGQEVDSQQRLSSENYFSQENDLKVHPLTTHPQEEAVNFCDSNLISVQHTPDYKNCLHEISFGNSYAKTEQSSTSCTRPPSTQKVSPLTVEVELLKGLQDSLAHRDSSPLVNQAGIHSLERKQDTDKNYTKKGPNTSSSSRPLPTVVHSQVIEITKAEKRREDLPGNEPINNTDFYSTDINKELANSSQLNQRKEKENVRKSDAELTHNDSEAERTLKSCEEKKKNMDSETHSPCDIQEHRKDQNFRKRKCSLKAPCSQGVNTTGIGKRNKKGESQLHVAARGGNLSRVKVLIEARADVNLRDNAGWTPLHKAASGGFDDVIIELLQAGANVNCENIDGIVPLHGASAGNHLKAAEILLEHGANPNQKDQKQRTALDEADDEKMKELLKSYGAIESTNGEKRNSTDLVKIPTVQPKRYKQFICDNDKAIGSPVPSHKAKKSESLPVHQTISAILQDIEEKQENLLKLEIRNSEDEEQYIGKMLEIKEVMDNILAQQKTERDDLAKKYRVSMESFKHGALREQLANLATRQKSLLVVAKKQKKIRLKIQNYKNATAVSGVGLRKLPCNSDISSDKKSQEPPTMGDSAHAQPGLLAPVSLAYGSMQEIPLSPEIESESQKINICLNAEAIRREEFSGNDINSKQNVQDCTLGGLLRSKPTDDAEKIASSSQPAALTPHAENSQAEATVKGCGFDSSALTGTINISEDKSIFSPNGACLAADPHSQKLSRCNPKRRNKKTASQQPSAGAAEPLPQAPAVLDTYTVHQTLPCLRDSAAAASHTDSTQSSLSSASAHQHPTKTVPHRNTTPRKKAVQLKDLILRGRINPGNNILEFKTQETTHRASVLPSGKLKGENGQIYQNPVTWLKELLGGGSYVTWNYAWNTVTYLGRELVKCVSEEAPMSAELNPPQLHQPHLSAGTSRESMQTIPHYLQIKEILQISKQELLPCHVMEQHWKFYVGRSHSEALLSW

Key:
Test in all cases: two-hybrid; Gal4 AD and BD fusions (pGADT7, pGBKT7); mating of Y187 and Y2HGold strains; selection on SD-Trp/Leu/AbA (200 ng/ml Aureobasidin A; moderate stringency) or SD-Trp/Leu/Ade/His/AbA (high stringency)
[1] = biological target: T1, REC114N (N-terminal part of REC114) (mouse) (UniProt Q9CWH4)
T1 sequence: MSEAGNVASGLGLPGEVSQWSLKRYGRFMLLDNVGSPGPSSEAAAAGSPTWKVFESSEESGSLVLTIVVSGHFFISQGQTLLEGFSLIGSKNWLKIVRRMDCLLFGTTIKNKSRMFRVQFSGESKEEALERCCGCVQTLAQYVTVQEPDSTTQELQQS

[2] = biological target: T2, ZMYM3 (mouse) (UniProt Q9JLM4)
T2 sequence: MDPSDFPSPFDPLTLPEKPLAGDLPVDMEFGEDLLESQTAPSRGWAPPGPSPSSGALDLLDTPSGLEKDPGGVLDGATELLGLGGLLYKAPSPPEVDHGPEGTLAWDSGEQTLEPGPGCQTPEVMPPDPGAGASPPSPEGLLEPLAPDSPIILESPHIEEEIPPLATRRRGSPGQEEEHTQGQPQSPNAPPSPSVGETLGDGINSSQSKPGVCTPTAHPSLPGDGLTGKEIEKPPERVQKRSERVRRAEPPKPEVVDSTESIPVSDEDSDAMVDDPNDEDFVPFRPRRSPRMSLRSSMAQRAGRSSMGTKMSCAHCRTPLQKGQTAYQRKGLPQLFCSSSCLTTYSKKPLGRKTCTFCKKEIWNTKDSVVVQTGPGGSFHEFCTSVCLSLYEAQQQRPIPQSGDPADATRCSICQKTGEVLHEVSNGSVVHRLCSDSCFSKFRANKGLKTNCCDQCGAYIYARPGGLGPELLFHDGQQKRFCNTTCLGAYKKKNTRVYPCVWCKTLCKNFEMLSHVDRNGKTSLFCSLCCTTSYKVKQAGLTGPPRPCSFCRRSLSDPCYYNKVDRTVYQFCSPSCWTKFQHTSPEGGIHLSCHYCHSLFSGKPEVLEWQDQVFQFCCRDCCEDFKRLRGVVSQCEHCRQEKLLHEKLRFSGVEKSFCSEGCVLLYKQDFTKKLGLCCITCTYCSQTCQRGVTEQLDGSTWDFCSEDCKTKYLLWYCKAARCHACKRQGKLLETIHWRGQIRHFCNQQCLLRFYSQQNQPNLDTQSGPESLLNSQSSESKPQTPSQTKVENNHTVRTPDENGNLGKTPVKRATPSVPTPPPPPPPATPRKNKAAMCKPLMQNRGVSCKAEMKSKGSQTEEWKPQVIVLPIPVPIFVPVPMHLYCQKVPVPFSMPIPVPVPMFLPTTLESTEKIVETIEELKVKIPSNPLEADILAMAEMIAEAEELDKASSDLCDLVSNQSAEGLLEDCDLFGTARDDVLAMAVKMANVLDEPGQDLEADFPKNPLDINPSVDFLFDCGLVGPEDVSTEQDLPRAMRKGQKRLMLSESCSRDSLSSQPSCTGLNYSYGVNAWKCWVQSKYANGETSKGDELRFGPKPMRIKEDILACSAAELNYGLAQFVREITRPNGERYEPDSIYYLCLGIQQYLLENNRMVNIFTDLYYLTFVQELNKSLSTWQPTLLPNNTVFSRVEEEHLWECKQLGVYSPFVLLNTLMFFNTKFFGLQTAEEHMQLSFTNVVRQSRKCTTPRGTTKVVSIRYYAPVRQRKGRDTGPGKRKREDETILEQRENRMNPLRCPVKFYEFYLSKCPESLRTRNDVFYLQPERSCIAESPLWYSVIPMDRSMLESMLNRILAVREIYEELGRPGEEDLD

[3] = biological target: T3, MEI1 (mouse) (UniProt Q9D4I2)
T3 sequence: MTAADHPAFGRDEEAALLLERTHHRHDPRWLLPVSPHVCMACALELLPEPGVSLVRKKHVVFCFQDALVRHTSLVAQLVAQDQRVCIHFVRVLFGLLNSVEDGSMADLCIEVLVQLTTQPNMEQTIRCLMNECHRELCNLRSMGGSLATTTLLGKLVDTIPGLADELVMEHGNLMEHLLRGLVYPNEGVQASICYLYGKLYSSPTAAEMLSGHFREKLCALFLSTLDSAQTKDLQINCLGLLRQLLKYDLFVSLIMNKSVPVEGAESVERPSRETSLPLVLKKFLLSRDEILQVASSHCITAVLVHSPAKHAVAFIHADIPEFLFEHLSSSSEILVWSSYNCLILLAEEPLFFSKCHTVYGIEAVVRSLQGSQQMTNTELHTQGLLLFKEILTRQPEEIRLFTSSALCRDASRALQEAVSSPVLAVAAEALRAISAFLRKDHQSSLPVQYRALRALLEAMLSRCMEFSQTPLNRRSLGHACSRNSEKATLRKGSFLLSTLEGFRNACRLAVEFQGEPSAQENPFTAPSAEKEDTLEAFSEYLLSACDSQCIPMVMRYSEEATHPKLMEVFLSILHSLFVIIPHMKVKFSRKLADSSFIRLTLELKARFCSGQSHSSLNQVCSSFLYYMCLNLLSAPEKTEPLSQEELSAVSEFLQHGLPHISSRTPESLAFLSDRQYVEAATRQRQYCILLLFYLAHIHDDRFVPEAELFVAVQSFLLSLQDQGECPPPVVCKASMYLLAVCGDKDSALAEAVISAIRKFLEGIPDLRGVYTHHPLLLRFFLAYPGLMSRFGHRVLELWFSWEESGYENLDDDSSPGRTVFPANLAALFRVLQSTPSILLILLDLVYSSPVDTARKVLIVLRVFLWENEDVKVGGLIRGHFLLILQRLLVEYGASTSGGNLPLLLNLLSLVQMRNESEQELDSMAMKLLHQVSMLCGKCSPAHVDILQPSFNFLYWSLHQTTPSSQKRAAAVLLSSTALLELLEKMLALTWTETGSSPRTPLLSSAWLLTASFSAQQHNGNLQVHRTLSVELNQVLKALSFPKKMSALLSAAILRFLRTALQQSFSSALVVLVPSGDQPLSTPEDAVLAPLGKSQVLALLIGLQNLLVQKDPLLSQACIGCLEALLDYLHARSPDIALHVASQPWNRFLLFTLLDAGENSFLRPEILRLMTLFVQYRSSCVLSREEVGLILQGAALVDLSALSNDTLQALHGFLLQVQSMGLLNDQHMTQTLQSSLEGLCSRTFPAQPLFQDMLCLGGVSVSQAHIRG

[4] = biological target: PTIP (mouse) (UniProt Q6NZQ4)
[5] = biological target: T4, REC114 1-145 (mouse) (UniProt Q9CWH4)
T4 sequence: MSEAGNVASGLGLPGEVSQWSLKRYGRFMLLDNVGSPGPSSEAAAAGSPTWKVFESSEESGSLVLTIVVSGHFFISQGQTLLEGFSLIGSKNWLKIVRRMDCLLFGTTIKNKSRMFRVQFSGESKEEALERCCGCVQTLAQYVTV

Measured: binding

ANKRD31 (Ankyrin Repeat Domain Containing 31), full-length wild type (from UniProt A0A140LI88 1-1857)
not listed: [5]
binds: all other assays above

ANKRD31-EA (full-length ANKRD31 with E1831A) (from UniProt A0A140LI88 1-1857)
not listed: [5]
binds: all other assays above

ANKRD31C (ANKRD31 residues 1808-1857) (from UniProt A0A140LI88 1808-1857) (domain or fragment)
binds: [5]
